# Results published in PubChem BioAssay AID2662 (National Center for Advancing Translational Sciences (NCATS), 2010).
# Chains of the proteins cited; added tags and fusions are not shown.
# UniProt Q03164, whole entry, looked up: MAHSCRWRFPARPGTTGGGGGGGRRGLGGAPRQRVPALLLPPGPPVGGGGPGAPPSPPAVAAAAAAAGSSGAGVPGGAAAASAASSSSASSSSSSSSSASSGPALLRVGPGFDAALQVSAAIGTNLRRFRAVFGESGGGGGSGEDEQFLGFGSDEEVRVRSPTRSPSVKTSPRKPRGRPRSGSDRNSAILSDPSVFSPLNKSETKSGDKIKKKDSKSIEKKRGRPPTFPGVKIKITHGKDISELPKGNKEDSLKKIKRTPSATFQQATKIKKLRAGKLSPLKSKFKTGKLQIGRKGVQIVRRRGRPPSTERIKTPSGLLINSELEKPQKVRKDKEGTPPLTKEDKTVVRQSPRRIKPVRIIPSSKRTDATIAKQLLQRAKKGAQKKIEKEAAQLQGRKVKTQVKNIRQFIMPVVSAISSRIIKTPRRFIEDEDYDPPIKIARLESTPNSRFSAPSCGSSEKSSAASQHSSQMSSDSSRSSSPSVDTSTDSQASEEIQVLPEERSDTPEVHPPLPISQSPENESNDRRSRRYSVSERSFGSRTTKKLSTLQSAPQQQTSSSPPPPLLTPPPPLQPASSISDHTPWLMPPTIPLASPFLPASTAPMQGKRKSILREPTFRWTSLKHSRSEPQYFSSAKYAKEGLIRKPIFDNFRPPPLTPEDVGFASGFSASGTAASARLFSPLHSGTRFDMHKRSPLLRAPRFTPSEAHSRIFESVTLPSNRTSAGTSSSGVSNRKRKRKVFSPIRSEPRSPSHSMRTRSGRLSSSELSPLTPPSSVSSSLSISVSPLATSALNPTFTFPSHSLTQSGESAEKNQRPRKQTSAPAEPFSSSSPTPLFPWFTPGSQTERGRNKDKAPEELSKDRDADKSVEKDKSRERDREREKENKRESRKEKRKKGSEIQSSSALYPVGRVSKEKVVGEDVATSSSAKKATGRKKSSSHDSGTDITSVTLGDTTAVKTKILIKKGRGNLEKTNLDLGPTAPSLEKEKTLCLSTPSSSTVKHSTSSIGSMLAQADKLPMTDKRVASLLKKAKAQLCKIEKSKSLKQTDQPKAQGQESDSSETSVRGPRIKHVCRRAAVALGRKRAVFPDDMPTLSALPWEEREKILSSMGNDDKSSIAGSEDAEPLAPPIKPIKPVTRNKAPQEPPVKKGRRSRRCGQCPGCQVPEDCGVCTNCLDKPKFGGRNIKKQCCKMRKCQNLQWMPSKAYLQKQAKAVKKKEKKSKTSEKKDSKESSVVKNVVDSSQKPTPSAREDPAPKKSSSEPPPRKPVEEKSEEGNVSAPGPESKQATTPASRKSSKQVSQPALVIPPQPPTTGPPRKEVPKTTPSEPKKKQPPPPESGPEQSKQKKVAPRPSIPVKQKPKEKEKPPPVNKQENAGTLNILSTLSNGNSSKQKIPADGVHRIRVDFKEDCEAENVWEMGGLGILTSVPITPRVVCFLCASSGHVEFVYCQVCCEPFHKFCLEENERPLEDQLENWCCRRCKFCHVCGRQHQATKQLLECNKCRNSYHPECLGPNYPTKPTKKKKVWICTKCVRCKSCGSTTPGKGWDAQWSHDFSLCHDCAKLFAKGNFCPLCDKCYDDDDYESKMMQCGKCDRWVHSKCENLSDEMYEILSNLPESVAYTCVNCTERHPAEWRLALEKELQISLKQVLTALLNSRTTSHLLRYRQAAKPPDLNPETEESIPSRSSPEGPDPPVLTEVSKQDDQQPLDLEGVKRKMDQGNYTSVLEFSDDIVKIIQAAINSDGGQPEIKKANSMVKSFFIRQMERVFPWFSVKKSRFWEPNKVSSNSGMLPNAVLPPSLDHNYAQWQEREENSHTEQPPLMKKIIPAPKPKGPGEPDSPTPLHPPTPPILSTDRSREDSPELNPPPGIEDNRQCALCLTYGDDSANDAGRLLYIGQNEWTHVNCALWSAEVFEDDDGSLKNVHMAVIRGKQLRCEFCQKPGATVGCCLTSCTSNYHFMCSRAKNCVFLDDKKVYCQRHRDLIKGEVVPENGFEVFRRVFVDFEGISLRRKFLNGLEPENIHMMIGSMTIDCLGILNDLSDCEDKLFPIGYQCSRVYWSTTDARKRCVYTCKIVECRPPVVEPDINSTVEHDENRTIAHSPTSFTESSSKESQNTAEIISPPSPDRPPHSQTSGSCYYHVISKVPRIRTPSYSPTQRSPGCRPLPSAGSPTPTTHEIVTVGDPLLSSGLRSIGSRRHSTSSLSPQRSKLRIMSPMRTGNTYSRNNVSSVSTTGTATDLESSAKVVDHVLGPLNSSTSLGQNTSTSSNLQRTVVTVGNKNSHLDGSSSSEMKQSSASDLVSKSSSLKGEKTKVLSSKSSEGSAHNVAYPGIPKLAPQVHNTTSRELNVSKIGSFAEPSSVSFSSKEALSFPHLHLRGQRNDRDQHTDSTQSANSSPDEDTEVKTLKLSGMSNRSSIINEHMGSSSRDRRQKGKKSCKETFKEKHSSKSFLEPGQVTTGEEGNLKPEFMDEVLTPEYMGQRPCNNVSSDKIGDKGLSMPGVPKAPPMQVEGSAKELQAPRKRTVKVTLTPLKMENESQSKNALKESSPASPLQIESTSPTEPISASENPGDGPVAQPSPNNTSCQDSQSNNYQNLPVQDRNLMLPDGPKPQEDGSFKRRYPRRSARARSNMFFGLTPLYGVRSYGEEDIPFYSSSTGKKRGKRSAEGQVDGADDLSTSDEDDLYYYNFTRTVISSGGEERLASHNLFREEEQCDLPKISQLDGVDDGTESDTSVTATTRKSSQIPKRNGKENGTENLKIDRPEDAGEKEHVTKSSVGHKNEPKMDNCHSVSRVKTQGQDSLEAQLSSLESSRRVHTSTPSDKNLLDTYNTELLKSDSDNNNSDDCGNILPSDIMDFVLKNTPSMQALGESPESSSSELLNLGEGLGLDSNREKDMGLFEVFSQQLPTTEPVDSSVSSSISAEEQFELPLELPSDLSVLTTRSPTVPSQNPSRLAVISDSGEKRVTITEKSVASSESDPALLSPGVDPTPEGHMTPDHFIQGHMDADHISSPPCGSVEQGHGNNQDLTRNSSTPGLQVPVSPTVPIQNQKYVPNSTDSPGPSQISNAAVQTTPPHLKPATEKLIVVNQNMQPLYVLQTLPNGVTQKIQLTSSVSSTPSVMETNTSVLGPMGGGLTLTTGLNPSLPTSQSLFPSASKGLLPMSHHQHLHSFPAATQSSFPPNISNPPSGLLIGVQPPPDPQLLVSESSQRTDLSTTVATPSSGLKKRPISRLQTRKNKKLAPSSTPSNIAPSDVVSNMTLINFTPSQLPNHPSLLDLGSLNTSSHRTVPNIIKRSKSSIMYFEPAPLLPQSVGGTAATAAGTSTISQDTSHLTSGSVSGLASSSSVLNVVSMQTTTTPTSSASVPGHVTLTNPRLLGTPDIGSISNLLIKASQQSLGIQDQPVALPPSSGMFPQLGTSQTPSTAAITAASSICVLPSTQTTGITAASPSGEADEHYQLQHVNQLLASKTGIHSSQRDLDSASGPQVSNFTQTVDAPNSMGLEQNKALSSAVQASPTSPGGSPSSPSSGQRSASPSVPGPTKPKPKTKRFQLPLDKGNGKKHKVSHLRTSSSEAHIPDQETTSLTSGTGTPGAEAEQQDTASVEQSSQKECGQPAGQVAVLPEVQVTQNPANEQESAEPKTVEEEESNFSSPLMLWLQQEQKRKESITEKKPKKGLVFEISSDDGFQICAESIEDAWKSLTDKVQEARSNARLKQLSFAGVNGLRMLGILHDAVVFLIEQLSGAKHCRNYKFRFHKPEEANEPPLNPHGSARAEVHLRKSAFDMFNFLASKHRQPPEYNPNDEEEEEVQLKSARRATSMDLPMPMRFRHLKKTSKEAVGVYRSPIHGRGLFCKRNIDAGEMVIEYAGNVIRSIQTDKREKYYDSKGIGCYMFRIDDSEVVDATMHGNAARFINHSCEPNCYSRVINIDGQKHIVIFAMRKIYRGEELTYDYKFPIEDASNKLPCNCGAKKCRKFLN
# Hit rate of the full screen: of about 290,000 compounds, about 110 (0.038%) were called active. Inconclusive means that the source gave no clear call. Such entries were picked first, then a sample of the others. Calls follow the shape of the dose curve; as a rule, active = well fitted inhibition curve with a large enough effect in the polarisation, with a control signal flat (not every such curve was filed as active); inconclusive = small, poorly fitted or top-dose-only effect, or effect the other way, or a change in a side signal; inactive = no such curve, though single readings can be large or run the other way; the % refers to the polarisation. Potencies of inconclusive entries are doubtful fits and often do not repeat. A note “side channel” means that the fit belongs to a control or component signal, not to the main read-out.
# Molecular target: Histone-lysine N-methyltransferase 2A (Homo sapiens) (UniProt Q03164)
# Experiment: qHTS Fluorescence Polarization Assay for Inhibitors of MLL CXXC domain - DNA interaction
# Conditions: MLL-CXXC / FITC-HOXA9 DNA fluorescence polarization; series mostly up to 115 µM
# Summary of the method: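 Purified MLL-CXXC (added from a 7 uM solution) was preincubated 5 min at ambient with pinned compounds in 50 mM Tris-HCl pH 7.5, 50 mM NaCl, 1 mM DTT, 0.05% BSA. Fluorescein-labeled HOX-A9 DNA (50 nM solution) followed, 30 min, then polarization read.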
# Potency is read from the fitted curve at half-maximal effect.
row,SMILES,Potency
1,COc1ccc(CNC(=O)C(C#N)c2nc3ccccc3nc2N2CCN(C)CC2)cc1 (configuration not stated),"inconclusive: 28.2 µM [quencher, side channel, partial curve]"
2,COc1ccc(NC(=O)NNC(=O)c2ccccc2-n2cccc2)cc1OC,"inconclusive: 100 µM [fluorescent, side channel, partial curve, poor fit]"
3,O=S(=O)(NCCNc1nccc(C(F)(F)F)n1)c1ccccc1,inactive
4,Cc1ccc(-c2nc(S(=O)(=O)c3ccc(C)cc3)c(N(C)C)o2)cc1,"inconclusive: 14.1 µM [fluorescent, side channel, single point]"
5,CC(C)(C)c1ccc(C(=O)NNC(=O)c2cccc(Br)c2)cc1,"inconclusive: 15.8 µM [fluorescent, side channel, single point]"
6,CN1C(=O)C(CC(=O)Nc2ccc(Cl)cc2)N(Cc2ccco2)C1=S (configuration not stated),"inconclusive: 31.6 µM [fluorescent, side channel, partial curve]"
7,Cc1ccc2c(n1)sc1c(-c3ccccc3)c(C#N)c(N)nc12,inactive
8,CC(C)NC(=O)Cn1cc(S(=O)(=O)N2CCCC2)c(S(=O)(=O)N2CCCC2)c1,"inconclusive: 56.2 µM [quencher, side channel, single point]"
9,COC(=O)C1=C(C(=O)c2ccccc2)C(c2ccc(O)c(OC)c2)n2nnnc2N1 (configuration not stated),"inconclusive: 70.8 µM [fluorescent, side channel, single point]"
10,Cc1ccc2cccc(SCC(=O)NCC#N)c2n1,inactive
11,CC(=O)c1c(C)[nH]c(C(=O)OCC(=O)Nc2cc(S(=O)(=O)N3CCCCC3)ccc2C)c1C,"inconclusive: 28.2 µM [fluorescent, side channel, partial curve]"
12,NC(=O)C1CCN(C2=C(Cl)C(=O)c3ccccc3C2=O)CC1,"inconclusive: 35.5 µM [quencher, side channel, single point]"
13,CC(Sc1cccc[n+]1[O-])c1ccccc1 (configuration not stated),"inconclusive: 7.94 µM [fluorescent, side channel, partial curve]"
14,O=S(=O)(c1cnc[nH]1)N1CCc2ccccc21,"inconclusive: 31.6 µM [fluorescent, side channel, partial curve]"
15,O=[N+]([O-])/C(C=Nc1ccccc1O)=C\Nc1ccccc1O,"inconclusive: 2.24 µM [quencher, side channel, full curve, poor fit]"
16,COc1ccc(-c2nc(=S)c3c([nH]2)Oc2ccc(C)cc2C3)cc1O,"inconclusive: 1.58 µM [fluorescent, side channel, full curve]"
17,COc1cc(C(=O)NCC(=O)OCc2ccccc2Cl)cc(OC)c1OC,"inconclusive: 10 µM [inhibitor, full curve]"
18,Cc1cccc(NC(=O)c2ccoc2C)n1,inactive
19,COc1ccc(Nc2ccc(Cl)cc2)c(C(=O)O)c1,"inconclusive: 89.1 µM [quencher, side channel, single point]"

# Copied from the list:
# Potency, COc1ccc(Nc2ccc(Cl)cc2)c(C(=O)O)c1 reads inconclusive: 89.1 µM [quencher, side channel, single point]
# Potency, O=S(=O)(NCCNc1nccc(C(F)(F)F)n1)c1ccccc1 reads inactive

# Later entries.

row,SMILES,Potency
1,N#Cc1c(C(F)(F)F)cc(-c2ccco2)nc1SCc1ccccn1,inactive
2,CC1CC(C)CN(C(=O)CNC(=O)c2ccc3ccccc3c2)C1 (configuration not stated),"inconclusive: 14.1 µM [fluorescent, side channel, single point]"
3,O=C(NCc1ccccc1Cl)C(=O)NCC1OCCN1S(=O)(=O)c1ccc(F)cc1 (configuration not stated),"inconclusive: 6.31 µM [fluorescent, side channel, partial curve, poor fit]"
4,O=C(Cc1ccccc1)N1CCN(S(=O)(=O)c2ccc([N+](=O)[O-])cc2)CC1,"inconclusive: 35.5 µM [inhibitor, single point]"
5,CCOC(=O)c1c2ccc(OCC(=O)N/N=C/c3ccc(C)cc3)cc2n2ccccc12,"inconclusive: 89.1 µM [inhibitor, single point]"
6,Nc1nc2nccc(-c3ccc(Cl)cc3)n2n1,inactive
7,O=C(CN1C(=O)NC2(CCCCCC2)C1=O)c1ccccc1,"inconclusive: 5.62 µM [fluorescent, side channel, partial curve]"
8,CN(C)C1(CNCC(O)c2ccccc2)CCCCC1 (configuration not stated),"inconclusive: 14.1 µM [inhibitor, single point]"
9,CC(=O)Nc1ccc(NC(=O)c2nccnc2C(=O)O)cn1,"inconclusive: 28.2 µM [fluorescent, side channel, partial curve, poor fit]"
10,O=C(Nc1ccccc1F)C(=Cc1sc(N2CCOCC2)nc1-c1ccccc1)C(=O)Nc1ccccc1F,"inconclusive: 50.1 µM [fluorescent, side channel, single point]"
11,Cc1ccc(C2C(C(=O)c3cccs3)=C(O)C(=O)N2c2cccc(C)n2)cc1 (configuration not stated),"inconclusive: 3.55 µM [quencher, side channel, full curve]"
12,COC(=O)c1c(C)[nH]c(C)c1-c1ccc(C)cc1,"inconclusive: 100 µM [fluorescent, side channel, partial curve, poor fit]"
13,COc1ccc(-n2c(C)c(C(C)=O)c3cc(OCC(N)=O)ccc32)cc1,"inconclusive: 15.8 µM [quencher, side channel, full curve, poor fit]"
14,O=C(Nc1ccc(C(=O)O)cc1)Nc1ccc([N+](=O)[O-])cc1,inactive
15,CCC(C)N1C(=O)/C(=C/c2c(NCCCOC(C)C)nc3c(C)cccn3c2=O)SC1=S (configuration not stated),"inconclusive: 44.7 µM [fluorescent, side channel, partial curve]"
16,CCOc1ccc(C(=O)Nc2ccc3nc(N4CCN(CC)CC4)cc(C)c3c2)cc1,"inconclusive: 70.8 µM [fluorescent, side channel, single point]"
17,CCOc1ccc2[nH]c(C(=O)N/N=C/c3ccccc3OC)cc2c1,"inconclusive: 89.1 µM [inhibitor, single point]"
18,CCOc1ccc(S(=O)(=O)N2CCCC(C(=O)NCc3ccncc3)C2)cc1Cl (configuration not stated),"inconclusive: 7.08 µM [fluorescent, side channel, full curve]"
